The target of assay [1] is T1, Membrane-associated RING-CH protein 8 (MARCH8) (human) (UniProt Q5T0T0).
T1 sequence: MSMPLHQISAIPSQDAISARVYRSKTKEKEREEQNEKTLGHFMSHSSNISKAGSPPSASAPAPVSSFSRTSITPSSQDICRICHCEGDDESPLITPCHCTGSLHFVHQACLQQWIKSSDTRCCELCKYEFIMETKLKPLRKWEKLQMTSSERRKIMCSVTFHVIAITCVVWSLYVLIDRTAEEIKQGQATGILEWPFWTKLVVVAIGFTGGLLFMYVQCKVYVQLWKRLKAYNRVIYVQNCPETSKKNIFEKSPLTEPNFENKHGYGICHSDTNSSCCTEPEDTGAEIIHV
Briefly: co-IP; immunoprecipitation from cell lysates (Fig. 3B), cell line and precipitating antibody not stated for this panel; antibody 1 h at 4 °C, protein A/G-agarose beads 3 h at 4 °C, Western blot.

The chains behind the UniProt entries cited, without tags or fusion partners.
UniProt P14618: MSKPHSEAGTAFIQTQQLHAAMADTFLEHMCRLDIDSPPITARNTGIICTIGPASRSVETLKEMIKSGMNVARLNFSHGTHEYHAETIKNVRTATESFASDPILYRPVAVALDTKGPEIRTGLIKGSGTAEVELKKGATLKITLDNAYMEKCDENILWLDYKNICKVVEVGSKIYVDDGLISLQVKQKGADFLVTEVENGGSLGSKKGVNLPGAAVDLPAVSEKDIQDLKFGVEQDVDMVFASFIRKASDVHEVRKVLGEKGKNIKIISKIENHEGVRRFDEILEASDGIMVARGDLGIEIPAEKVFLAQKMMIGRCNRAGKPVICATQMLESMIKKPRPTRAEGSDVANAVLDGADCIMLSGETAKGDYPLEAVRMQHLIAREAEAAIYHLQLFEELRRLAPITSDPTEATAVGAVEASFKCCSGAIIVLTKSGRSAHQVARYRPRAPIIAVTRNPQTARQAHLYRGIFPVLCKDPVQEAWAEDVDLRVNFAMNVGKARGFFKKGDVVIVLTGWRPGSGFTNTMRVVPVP

Assay [2] concerns the target T1, Membrane-associated RING-CH protein 8 (MARCH8) (human). Briefly: co-IP; Co-IP in SW480 cells (Fig. 3G); lysates with anti-MARCH8, anti-HK2 or IgG 1 h at 4 °C, protein A/G-agarose beads 3 h at 4 °C, Western blot.

Results are given in words; binding and its absence hold for the method and conditions named. Binding seen in cells or lysates may run through a third protein. Some results given as binding are weak or reduced against the parent protein; the word gives no strength. For some of these results: Where a sequence is shown, tags or fusion partners need not be part of it.

As to “pyruvate kinase M2 (PKM2) (from UniProt P14618 1-531)”, in assay [1], the binding entry is “no binding”.

B1: glucose transporter 4 (GLUT4) (protein, UniProt P14672 1-509)
chain: MPSGFQQIGSEDGEPPQQRVTGTLVLAVFSAVLGSLQFGYNIGVINAPQKVIEQSYNETWLGRQGPEGPSSIPPGTLTTLWALSVAIFSVGGMISSFLIGIISQWLGRKRAMLVNNVLAVLGGSLMGLANAAASYEMLILGRFLIGAYSGLTSGLVPMYVGEIAPTHLRGALGTLNQLAIVIGILIAQVLGLESLLGTASLWPLLLGLTVLPALLQLVLLPFCPESPRYLYIIQNLEGPARKSLKRLTGWADVSGVLAELKDEKRKLERERPLSLLQLLGSRTHRQPLIIAVVLQLSQQLSGINAVFYYSTSIFETAGVGQPAYATIGAGVVNTVFTLVSVLLVERAGRRTLHLLGLAGMCGCAILMTVALLLLERVPAMSYVSIVAIFGFVAFFEIGPGPIPWFIVAELFSQGPRPAAMAVAGFSNWTSNFIIGMGFQYVAEAMGPYVFLLFAVLLLGFFIFTFLRVPETRGRTFDQISAAFHRTPSLLEQEVKPSTELEYLGPDEND
In the case of B1, the binding result in assay [1] is reported as “no binding”.

B2: hexokinase 2 (HK2) (protein, UniProt P52789 1-917)
chain: MIASHLLAYFFTELNHDQVQKVDQYLYHMRLSDETLLEISKRFRKEMEKGLGATTHPTAAVKMLPTFVRSTPDGTEHGEFLALDLGGTNFRVLWVKVTDNGLQKVEMENQIYAIPEDIMRGSGTQLFDHIAECLANFMDKLQIKDKKLPLGFTFSFPCHQTKLDESFLVSWTKGFKSSGVEGRDVVALIRKAIQRRGDFDIDIVAVVNDTVGTMMTCGYDDHNCEIGLIVGTGSNACYMEEMRHIDMVEGDEGRMCINMEWGAFGDDGSLNDIRTEFDQEIDMGSLNPGKQLFEKMISGMYMGELVRLILVKMAKEELLFGGKLSPELLNTGRFETKDISDIEGEKDGIRKAREVLMRLGLDPTQEDCVATHRICQIVSTRSASLCAATLAAVLQRIKENKGEERLRSTIGVDGSVYKKHPHFAKRLHKTVRRLVPGCDVRFLRSEDGSGKGAAMVTAVAYRLADQHRARQKTLEHLQLSHDQLLEVKRRMKVEMERGLSKETHASAPVKMLPTYVCATPDGTEKGDFLALDLGGTNFRVLLVRVRNGKWGGVEMHNKIYAIPQEVMHGTGDELFDHIVQCIADFLEYMGMKGVSLPLGFTFSFPCQQNSLDESILLKWTKGFKASGCEGEDVVTLLKEAIHRREEFDLDVVAVVNDTVGTMMTCGFEDPHCEVGLIVGTGSNACYMEEMRNVELVEGEEGRMCVNMEWGAFGDNGCLDDFRTEFDVAVDELSLNPGKQRFEKMISGMYLGEIVRNILIDFTKRGLLFRGRISERLKTRGIFETKFLSQIESDCLALLQVRAILQHLGLESTCDDSIIVKEVCTVVARRAAQLCGAGMAAVVDRIRENRGLDALKVTVGVDGTLYKLHPHFAKVMHETVKDLAPKCDVSFLQSEDGSGKGAALITAVACRIREAGQR
Turning to B2, the binding result in assay [2] and in assay [1] was “binds” throughout.

(Values after publication PMC9446774.)
